Reference: article PMC7326921
These are yes or no findings as the source states them, for the method shown. Binding seen in cells or lysates may run through a third protein. Some binding calls cover weakened binding; strength is not graded here. Each block holds one substance with its values, some of them ahead of it.

By UniProt entry, the sequences of proteins in these tests, tags left out. Where a name states a change or a piece, a line headed by the entry shows the natural chain unless it says otherwise.
UniProt Q8IZP0: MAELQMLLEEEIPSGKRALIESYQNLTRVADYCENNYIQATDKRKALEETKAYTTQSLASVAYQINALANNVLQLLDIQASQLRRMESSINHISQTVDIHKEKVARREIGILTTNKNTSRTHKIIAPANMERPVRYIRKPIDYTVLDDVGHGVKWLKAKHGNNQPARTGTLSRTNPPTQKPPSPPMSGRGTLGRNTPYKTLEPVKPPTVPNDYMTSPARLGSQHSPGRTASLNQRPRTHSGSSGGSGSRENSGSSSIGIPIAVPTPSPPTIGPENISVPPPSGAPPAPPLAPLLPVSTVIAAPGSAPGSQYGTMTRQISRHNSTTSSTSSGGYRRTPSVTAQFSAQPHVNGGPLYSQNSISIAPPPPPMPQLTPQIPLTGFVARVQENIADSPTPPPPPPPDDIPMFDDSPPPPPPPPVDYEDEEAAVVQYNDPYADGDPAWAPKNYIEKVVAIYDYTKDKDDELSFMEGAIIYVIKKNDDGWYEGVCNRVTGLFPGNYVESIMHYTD
UniProt P07737: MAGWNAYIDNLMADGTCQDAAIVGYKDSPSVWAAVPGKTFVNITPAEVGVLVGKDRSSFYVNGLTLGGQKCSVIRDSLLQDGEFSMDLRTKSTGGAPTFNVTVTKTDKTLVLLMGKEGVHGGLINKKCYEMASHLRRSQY
UniProt P05556: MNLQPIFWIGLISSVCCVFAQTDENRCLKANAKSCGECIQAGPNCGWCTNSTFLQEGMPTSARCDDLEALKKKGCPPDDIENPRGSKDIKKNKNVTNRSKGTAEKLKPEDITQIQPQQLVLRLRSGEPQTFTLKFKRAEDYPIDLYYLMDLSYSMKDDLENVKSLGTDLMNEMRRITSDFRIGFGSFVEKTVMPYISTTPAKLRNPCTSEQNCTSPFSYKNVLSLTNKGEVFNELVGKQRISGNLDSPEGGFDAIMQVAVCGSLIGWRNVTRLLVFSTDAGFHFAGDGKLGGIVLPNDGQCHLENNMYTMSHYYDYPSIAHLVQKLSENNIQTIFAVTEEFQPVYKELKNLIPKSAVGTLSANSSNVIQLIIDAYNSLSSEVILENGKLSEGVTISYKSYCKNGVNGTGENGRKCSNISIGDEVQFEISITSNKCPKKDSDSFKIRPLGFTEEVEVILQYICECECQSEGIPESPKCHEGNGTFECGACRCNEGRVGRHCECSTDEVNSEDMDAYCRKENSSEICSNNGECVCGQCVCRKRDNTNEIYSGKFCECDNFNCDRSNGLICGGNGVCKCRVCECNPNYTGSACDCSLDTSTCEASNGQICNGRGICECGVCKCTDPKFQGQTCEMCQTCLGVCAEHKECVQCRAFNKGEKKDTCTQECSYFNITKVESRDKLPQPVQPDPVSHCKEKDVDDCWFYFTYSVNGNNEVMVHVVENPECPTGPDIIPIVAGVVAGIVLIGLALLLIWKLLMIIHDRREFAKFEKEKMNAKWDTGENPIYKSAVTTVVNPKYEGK

Experiments:
[1] = biological target: Abi1 (Abelson interactor 1), endogenous (human (endogenous in HASM cells)) (UniProt Q8IZP0); experiment: co-IP; endogenous proteins in extracts of HASM cells; immunoprecipitated with Pfn-1 antibody and blotted for Abi1 and Pfn-1 (Fig. 2C), or Abi1 immunoprecipitates blotted for integrin β1 (Fig. 6B)
[2] = biological target: EYFP-tagged full length Abi1 (Abelson interactor 1) (UniProt Q8IZP0); experiment: co-IP; EYFP-tagged FL Abi1 or ∆PP cotransfected into cells with Flag-Pfn-1; cell extracts immunoprecipitated with GFP antibody and blotted with GFP antibody and Flag antibody
[3] = biological target: profilin-1 (Pfn-1), endogenous (human (endogenous in HASM cells)) (UniProt P07737); experiment: co-IP; endogenous proteins in extracts of HASM cells; immunoprecipitated with Pfn-1 antibody and blotted for Abi1 and Pfn-1 (Fig. 2C), or Abi1 immunoprecipitates blotted for integrin β1 (Fig. 6B)

- binding [1]: binds
Substance: Integrin β1, endogenous (from UniProt P05556 21-798) (receptor)

- binding [2]: binds
Substance: Flag-Pfn-1 (profilin-1) (from UniProt P07737 1-140)

- binding [3]: binds
Substance: Abi1 (Abelson interactor 1), endogenous (from UniProt Q8IZP0 1-508)
